Taken from: PubChem BioAssay AID652259 (Drosophila RNAi Screening Center, 2013)
The screen tested about 22,000 reagents; below is an unselected part of those that have a named target and a result. In the full data, 233 (1.1%) got an active call. 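Light values are raw, unnormalised plate reads; the ratio scores behind the reporter calls were not deposited.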 Unmarked entries are inactive. Names joined by + are all predicted targets of the reagent. The record does not give: the amount of reagent, the time to read-out, the dose of the treatment.

Screen: 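Genome-wide hunt for genes that control Wingless pathway activity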 (primary screen)
Cells: Drosophila clone 8 imaginal disc epithelial cells
Knock-down reagent: long dsRNA against Drosophila genes
Challenge: pathway stimulated by co-transfected Wingless expression plasmid
Measured: 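Firefly luciferase from a tcf-site Wingless reporter, measured alongside co-transfected Renilla luciferase that tracks transfection; pathway stimulated by a Wingless plasmid; the firefly-to-Renilla ratio is not deposited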
Reading the numbers: firefly reporter light: higher = more Wg reporter light, before normalisation; Renilla control light: higher = more transfected or surviving cells
Rule for the call: 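Strong candidates differ from their plate mean by at least two out of four per-plate statistical tests; weak candidates meet just one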
Calls: active = candidate regulator (raises or lowers reporter); inactive = not a candidate

no.	Gene	PubChem SID	firefly reporter light, replicate 1	firefly reporter light, replicate 2	Renilla control light, replicate 1	Renilla control light, replicate 2
1	HP6	SID104180263	1555	5517	787	1881
2	CAH14	SID104184026	4389	10856	1488	4064
3	CAH14	SID104201707	4.70e5	4.39e5	1.78e5	2.16e5
4	dl	SID104183312	11186		2738	
5	dl	SID104183313	3021	6534	1149	3443
6	CG8043	SID104196160	14172		3766	
7	CG17118	SID104182371	3196	4772	1020	2160
8	CG18336	SID104186126	6888		2616	
9	CG10444	SID104185782	12444		2461	
10	CG34256	SID104189374	7792		876	
11	Polr3D	SID104190277	3434		1197	
12	CG15472	SID104197847	19168		8470	
13	CG14818	SID104198340	28779		17216	
14	Gr36c	SID104182229	1812	6411	896	2673
15	CG16825	SID104182318	2300	6786	381	3152
16	bocks	SID104196281	8640		3812	
17	CG12104	SID104188046	12444		6288	
18	CG4306	SID104190201	5211		2547	
19	Hou	SID104199793	3667	12327	1543	4612
20	Hou	SID104201840	4.91e5	4.97e5	2.18e5	2.25e5
21	Cpr47Ea	SID104187125	9091		3824	
22	BBS5	SID104191960	12809		4652	
23	Iswi	SID104187238	5088		1287	
24	CG30427	SID104183806	16691		9441	
25	CG30427	SID104184103	14690		4980	
26	CG30427	SID104184115	1768	7756	416	2566
27	CG7352	SID104196025	14578		3113	
28	Zip88E	SID104195354	15325		2304	
29	CG10638	SID104189554	4995		2067	
30	pain	SID104184065	3028	6192	378	2352
31	can	SID104190456	1997		892	
32	CG13685	SID104189835	1658	7314	1552	2940
33	CG33635	SID104179798	28093		15780	
34	Gel	SID104192142	5729		2656	
35	link	SID104186160	5381		1437	
36	Gss1 + Gss2	SID104199800	25788		11504	
37	Gss1 + Gss2	SID104201256	4.09e5	4.48e5	64643	51518
38	Zpr1	SID104198224	3299	5079	875	1664
39	CG13562	SID104183992	3725	9402	576	2598
40	Acyp	SID104181653	3366	6608	1145	2896
41	CG17440	SID104197918	28872		8978	
42	CG34428	SID104189911	5552		2312	
43	Mcm7	SID104191011	1914		983	
44	Lsp2	SID104189633	7091		2900	
45	Lsp2	SID104191008	8125		2553	
46	fd96Ca	SID104196738	20401		14842	
47	kek6	SID104195091	22631		9292	
48	Dad1	SID104182055	2121	7283	916	3197
49	CG14304	SID104194575	20171		2485	
50	Drsl5	SID104187951	6501		3286	
51	IPIP	SID104181956	15997		8320	
52	Ku80	SID104182491	2560	4039	1001	2372
53	asf1	SID104191116	4205		1293	
54	Cyp28c1	SID104200028	20683		8968	
55	sle + CG12592	SID104201153	3.02e5	3.24e5	1.36e5	1.21e5
56	CG34045	SID104185579	30608		20635	
57	CG5704	SID104188364	14432		4849	
58	Baldspot	SID104189463	11549		4419	
59	RabX6	SID104188015	4345		2775	
60	Elo68alpha	SID104202104	6.41e5	6.69e5	2.56e5	90153
61	CG31200	SID104195077	14411		3749	
62	CG9632	SID104196320	9685		2169	
63	Obp19a	SID104200279	22928		9971	
64	CG1304	SID104200286	22044		10448	
65	gwl	SID104196097	1605	4532	701	917
66	pAbp	SID104187451	7708		2440	
67	usp	SID104198639	25958		13805	
68	CG9698	SID104196331	4625		2509	
69	CG32719	SID104197317	4038		1845	
70	ArfGAP3	SID104191586	9545		3010	
71	Kap3	SID104199218	4769	10864	1632	3680
72	MED25	SID104194275	2768	4064	256	394
73	ash2	SID104196694	2169	6611	983	1700

Records above whose target name begins with D or d:
Gene	PubChem SID	firefly reporter light, replicate 1	firefly reporter light, replicate 2	Renilla control light, replicate 1	Renilla control light, replicate 2
dl	SID104183312	11186		2738	
dl	SID104183313	3021	6534	1149	3443
Dad1	SID104182055	2121	7283	916	3197
Drsl5	SID104187951	6501		3286	
